Measurements reported in PubChem BioAssay AID504786 (Drosophila RNAi Screening Center, 2011)
Test: 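Knock-downs reducing HIF reporter induction by the iron chelator DFO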 (primary screen). System: Drosophila S2 cells with a stable HIF luciferase reporter. Reagents: long dsRNA against Drosophila genes, about 0.2 µg dsRNA per well of a 384-well plate. Time to read-out: three days of knock-down, then 20 h of DFO before reading. Conditions: desferrioxamine (DFO) at 100 µM, an iron chelator that mimics hypoxia, for 20 h. Measured: 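HIF reporter luminescence in cells given 100 µM DFO for 20 h, using the mouse ldh-a hypoxia-response element, scored as per-plate z-scores; higher means greater loss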. Reading the numbers: z-score: higher = stronger loss of HIF reporter signal.
In all, the deposit lists about 21,000 reagents; this is a random part of those with a known target gene and a result. 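Primary screen; positive scores mean lost reporter signal, so the sign may be inverted from the usual convention.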 Reagents against one gene are numbered here. A plus sign joins genes that one reagent is predicted to hit. Reagent sequences are not shown.

no.	target	dsRNA no.	z-score, replicate 1	z-score, replicate 2	z-score, replicate 3	z-score, replicate 4
1	CG12376	1	0	-0.6		
2	Cdc37	1	0.1	0.7		
3	Serinc	1	-0.3	-0.3		
4	Vps37B	1	-0.2	0.4		
5	ATPsynepsilonL	1	0.9	0.7		
6	Eo	1	-0.2	-0.9		
7	CG6834	1	-0.2	-0.2		
8	mei-41	1	0.2	0.3		
9	CG6574	1	-0.2	-0.2		
10	CG14949	1	-0.4	-0.3		
11	Gpo2	1	-0.2	-0.5		
12	CG17050 (retired record)	1	-0.4	-0.6		
13	Adsl	1	-0.2	-0.5		
14	Rab3	1	-0.3	-0.2		
15	CR12798	1	0.2	0.4		
16	sta	1	3.8	3.9		
17	Ant2	1	-0.1	-0.4		
18	CG15705	1	-0.5	-0.7		
19	CG42264	1	-0.3	-0.6		
20	CG42264	2	-0.2	-0.5		
21	ftz-f1	1	-0.3	0		
22	PGRP-SB1	1	-0.3	0.2		
23	robo1	1	-0.3	-0.3		
24	CG13887	1	-0.1	0.1		
25	CG3106	1	-0.3	-0.3		
26	CG14834	1	-0.2	-0.2		
27	run	1	-0.2	-0.3		
28	Shaw	1	-0.3	-0.8		
29	Shaw	2	-0.4	0.4	-0.8	-0.4
30	CG14185	1	-0.2	-0.3		
31	CG9150	1	-0.4	-0.1		
32	CG7668	1	-0.3	-0.5		
33	CG32606 (retired record)	1	6.4	1.9		
34	CG32606 (retired record)	2	-0.3	-0.9		
35	CG32606 (retired record)	3	-0.3	1.2	-1	0
36	CG32606 (retired record)	4	-0.4	0	-0.2	-0.3
37	Hr83	1	-0.4	-0.2		
38	CG17145	1	-0.2	-0.4		
39	betaTub97EF	1	1.6	-0.6		
40	betaTub97EF	2	-0.4	-0.8		
41	betaTub97EF	3	-0.3	-0.4		
42	dlp	1	0.1	1.1		
43	dlp	2	-0.5	-1.5		
44	CG14324	1	-0.3	0.1		
45	CG31924	1	-0.1	-0.4		
46	CG4593	1	-0.3	-0.4		
47	CG6805	1	-0.2	-0.2		
48	Cyp309a1	1	-0.3	0.1		
49	CG8534	1	-0.3	-0.5		
50	PK1-R	1	-0.4	-0.8		
51	BOD1	1	-0.3	-0.4		
52	CG7730	1	-0.4	-0.5		
53	CG15136	1	-0.3	-0.7		
54	Diap1	1	4.8	4.9		
55	ase	1	-0.2	-0.3		
56	Cp110	1	-0.3	-0.7		
57	CG14190	1	-0.1	0.3		
58	CG14369	1	-0.3	0		
59	CG14007	1	-0.2	-0.3		
60	CG34028	1	-0.2	-0.3		
61	CG14879	1	-0.3	-0.5		
62	CG12091	1	-0.4	-0.2		
63	shi	1	-0.6	-0.9		
64	CG12551 (retired record)	1	-0.3	-0.8		
65	CG12551 (retired record)	2	-0.1	-0.2		
66	Nph	1	-0.5	-0.9		
67	Aos1	1	-0.6	-1.3		
68	TH1	1	-0.5	0		
69	CG2931	1	-0.5	1.4		
70	CG3982	1	2.8	1.3		
71	CG5742	1	-0.3	-0.5		
72	egr	1	-0.3	-0.5		
73	CG13138	1	0	0.1		
74	CG14502	1	-0.2	-0.5		
75	CG4017	1	-0.3	-0.4		
76	Scsalpha1	1	0.1	0		
77	Mst57Da + alpha4GT2	1	-0.1	-0.1		
78	CREG	1	-0.5	-1		
79	CG10163	1	-0.3	-0.8		
80	Stim	1	-0.4	0.8		
81	CG14694	1	-0.4	-0.4		
82	RagC-D	1	0.6	0		
83	CG5355	1	-0.1	0.2		
84	Taf13	1	0.3	0.5		
85	CR31700	1	0	-0.1		
86	Pus7	1	-0.2	-0.1		
87	CG13801	1	-0.2	-0.4		
88	Hira	1	-0.4	0.4		
89	aos	1	-0.4	-0.1		
90	Edem1	1	-0.1	-0.3		
91	Mlp84B	1	-0.1	-0.1		
92	CG12177	1	-0.2	0	0.2	0
93	UQCR-C1	1	1.4	1.3		
94	CG33453	1	-0.2	-0.1		
95	edl	1	-0.3	-0.3		
96	Klp67A	1	-0.2	0.1		
97	CG12659	1	-0.3	-0.9		
98	CG33225	1	0.2	0.1		
99	fd19B	1	-0.2	-0.6		
100	CAH14	1	-0.3	-0.7		
101	CG3706	1	-0.4	-0.3		
102	Alp9	1	-0.2	-0.2		
103	squ	1	-0.4	0.3		
104	GCS2beta	1	0.3	0		
105	Acn	1	1.2	2.8		
106	Ref2	1	-0.3	-0.2		

Targets listed so far whose gene name starts with D or d:
target	dsRNA no.	z-score, replicate 1	z-score, replicate 2	z-score, replicate 3	z-score, replicate 4
dlp	1	0.1	1.1		
dlp	2	-0.5	-1.5		
Diap1	1	4.8	4.9		
